Experimental data as given in patent publication EP4360643A1, “SOCS1 DERIVED PEPTIDES FOR USE IN THE TREATMENT OF LIVER DISEASES” (Fundacion Instituto De Investigacion Sanitaria Fundacion …, priority 2022, dated 2024).
Not every detail of the peptide structures is certain; ends, links or a residue may be inferred. Some entries repeat one wording, which the source may state once for all of them. Where no end group is shown, it is not given here.

Tests used:
[1] = system: ApoE-/- mice fed with HFD; test: NAFLD induced by high-fat diet (HFD) in ApoE-/- mice; type: in vivo; settings: 8 weeks of treatment
Description: In the second model, apolipoprotein E deficient mice (ApoE-/-, males, 10-12 weeks old) were administered high-fat diet (HFD, TD.88137, Envigo) for 8 weeks and treated with vehicle (n=8) or SOCS1-derived peptides (S1, n=6; liPS5, n=6; cPS5, n=6; cPS5Nal, n=6) at the dose of 4µg/g (in 200 µL) via intraperitoneal injection 3 days per week. A group of ApoE-/- mice under standard diet (Chow, n=6) was included as control.
Mice were housed in ventilated cages (2-4 mice per cage) with usual bedding material and environmental enrichment in a conventional temperature-controlled room (20-22°C) with 12 h light/dark cycle and free access to water and food. Blood glucose (glucometer; NovaPro, Menarini Diagnostics) and body weight levels were monitored once weekly during the follow-up period. At the end of the intervention studies, mice were anaesthetized (ketamine 100 mg/kg and xylazine 10 mg/kg) and euthanized, and blood and tissue samples were collected.
Hepatic lipids were extracted as previously described. Commercial colorimetric kits were used to measure concentrations of total cholesterol (STA-384, Cell Biolabs) and TG (11528, Biosystems), and values were normalized by tissue weight and mg of protein (BCA assay), respectively.
At the time of harvest, liver samples were fixed in 10% buffered formalin, processed for paraffin-embedding and cut (3-4 µm) or embedded in OCT compound and cryosectioned into 7 µm slices. Deparaffinized sections were stained with hematoxylin/eosin and Masson's trichrome to evaluate the histological NAFLD activity score (NAS) considering steatosis, lobular inflammation, ballooning and fibrosis, as previously described or were stained with picrosirious red to assess collagen deposition and fibrotic areas. Periodic Acid Schiff staining was performed for glycogen deposition assessment. Cryosections were stained with Oil red O/ hematoxylin to detect lipid accumulation.
For immunohistochemistry, liver sections were deparaffinized and […] through graded xylene and ethanol. After antigen retrieval (0.01 M citrate buffer pH 6 for 20 min) and blockade of endogenous peroxidase (3% H2O2 in methanol for 30 min) and nonspecific binding (8% host serum for 30 min), slides were incubated overnight at 4°C with primary antibodies against phosphorylated STAT1 (P-STAT1, Tyr701; Thermo Fisher Scientific Cat# 44-376G, RRID:AB_2533642), P-STAT3 (Ser727, Cell Signalling Technology Cat# 9134, RRID:AB_331589), P-nuclear factor erythroid 2-related factor 2 (NRF2, Ser40; Abcam Cat# ab76026, RRID:AB_1524049) and F4/80 monocytes/macrophages (Bio-Rad Cat# MCA497R, RRID:AB_323279). After rinsing in PBS, samples were incubated with respective secondary antibodies conjugated with either horseradish peroxidase or biotin (followed by avidin-biotin complex reagent). Immunoreactive cells were then visualized by the addition of peroxidase substrates (3, 3-diaminobenzidine or 3-amino-9-ethylcarbazole; DAKO) and counterstained with hematoxylin.
All the histological evaluations were conducted in a blinded fashion. Positive staining was quantified in at least 2 sections per mice using Image-Pro Plus software (Media Cybernetics) and expressed as percentage or number of positive cells per area.
(§1) Total RNA from mouse liver and hepatocytes was extracted using TRI Reagent (Molecular Research Center). Complementary DNA was produced via reverse transcription using High Capacity cDNA Reverse Transcription Kit (Applied Biosystems). The gene expression of mouse genes was determined in duplicate by quantitative real-time PCR using predesigned TaqMan gene expression assays (Applied Biosystems) or Premix ExTaq (Takara). The results for each sample were normalized to the 18S rRNA housekeeping expression, and data expressed as fold increases versus chow diet (in vivo studies) or basal conditions (in vitro studies).

JAK/STAT pathway [2] = test: JAK/STAT pathway activation in liver of MCD-fed mice (Western blot and immunohistochemistry of P-STAT1, P-STAT3); type: in vivo, C57BL/6J mice; settings: induced by MCD diet at 3 and 5 weeks; 4 µg/g intraperitoneal
BTBR ob/ob mice [3] = test: Early NAFLD development in the obesity and T2D mouse model (BTBR ob/ob, 6 weeks old); type: in vivo; settings: 7 weeks, intraperitoneal 3 days per week; S1 2 and 4 µg/g, Mut 4 µg/g; vs vehicle group
BKS db/db mice = test: T2D-induced liver damage in BKS db/db mice (leptin receptor deficiency); type: in vivo; settings: 7 weeks, vs untreated BKS db/db mice
Keap-NRF2 pathway = test: P-NRF2 immunohistochemistry in liver of BTBR ob/ob mice; type: in vivo; settings: S1 2 and 4 µg/g for 7 weeks
STAT1 protein = test: STAT1 phosphorylation in hepatocytes exposed to palmitic acid (Western blot); type: cell-based, mouse; settings: hepatocytes exposed to palmitic acid 400 µM, 6 hours; 59 µM S1, 25 µM liPS5
BTBR ob/ob mice [4] = test: NAFLD progression in the obesity and T2D mouse model (BTBR ob/ob, 16 weeks old), with liver lipidomic analysis; type: in vivo
JAK/STAT pathway [5] = test: P-STAT3 immunohistochemistry in liver of BTBR ob/ob mice; type: in vivo; settings: S1 2 and 4 µg/g for 7 weeks
WT mice fed on MCD = test: NAFLD/NASH mouse model induced by methionine-choline deficient diet (MCD); type: in vivo, C57BL/6J mice; settings: for F4/80 positive staining, reduced (% vs Vehicle): 4 µg/g intraperitoneal; for circulating levels of transaminase GPT, significantly reduced (% vs Veh): 4 µg/g intraperitoneal 3 days per week
[6] = system: mouse hepatocyte cell line; test: In vitro NAFLD model: hepatocytes exposed to palmitic acid (Oil red O staining, real-time PCR); type: cell-based; settings: induced by palmitic acid 400 µM, 6 hours
Description: Immortalized mouse hepatocyte cell line (kindly provided by Dr. Valverde, IIBm Alberto Sols, Madrid) were cultured in Dulbecco's Modified Eagle Medium (DMEM; D6546, Sigma-Aldrich) containing 10% FBS, 100 U/mL penicillin, 100 µg/mL streptomycin and 2 mM L-glutamine (Sigma-Aldrich) and used between 2nd-8th passages. Cells were incubated for 24 hours in medium with 0.5% FBS, pre-treated for 90 min with optimal doses of peptides (59 µM S1 and 25 µM liPS5) and then stimulated for additional 2-16 h with palmitic acid (P-0500, Sigma-Aldrich; stock solution diluted in fatty acid-free BSA to 5 mM) at a final concentration of 400 µM. Cell viability was confirmed by the 3-(4,5-dimethylthiazol-2-yl)-2,5-diphenyltetrazolium bromide tetrazolium (MTT) assay. Lipid accumulation in hepatocytes was determined by Oil red O staining.
as §1

[7] = 4µg/g intraperitoneal 3 days per week, vs vehicle
[8] = combined treatment with losartan
[9] = S1 10 µg/g compared with baricitinib 3 µg/g, 7 weeks
[10] = lipidomic analysis, S1 10 µg/g, 7 weeks
[11] = lipidomic analysis, S1 10 µg/g, baricitinib 3 µg/g, 7 weeks

Sequence: DTHFRTFRSHADYRRI [S1, DTHFRTFRSHADYRRI]
- gene expression of CCL5 in mouse liver [1]: effectively prevented
- gene expression of CCl2 in mouse liver [1]: effectively prevented
- gene expression of CXCL10 in mouse liver [1]: effectively prevented
- gene expression of IL-6 in mouse liver [1]: effectively prevented
- gene expression of TNFα in mouse liver [1]: effectively prevented
- gene expression of scavenger receptor CD36 in mouse liver [1]: effectively prevented
- ballooning (liver sections) [1, 7]: marked decrease
- hepatic steatosis (liver sections, hematoxylin/eosin, Oil red O) [1, 7]: marked decrease
- inflammation (liver sections, F4/80) [1, 7]: marked decrease
- P-STAT1 levels in liver (JAK/STAT pathway [2]): decreased
- P-STAT3 levels in liver (JAK/STAT pathway [2]): decreased
- NAFLD histological features (total NAS score) (BTBR ob/ob mice [3]): partial reversion
- hyperglycemia (BKS db/db mice; combined treatment with losartan 25 µg/g, S1 10 µg/g or baricitinib 3 µg/g intraperitoneal): significantly reduced
- NAFLD histological features (e.g. steatosis, ballooning and total NAS score) (BKS db/db mice; [8]): improved
- biochemical parameters (BKS db/db mice; [8]): improved
- P-NRF2 protein in liver (Keap-NRF2 pathway): reduced levels
- phosphorylation of STAT1 protein (STAT1 protein): prevented
- total NAS score (BTBR ob/ob mice [4]; BTBR ob/ob at 16 weeks of age, 10 µg/g for 7 weeks): marked decrease
- ballooning (BTBR ob/ob mice [4]; [9]): superior effect than baricitinib
- lobular inflammation (BTBR ob/ob mice [4]; [9]): superior effect than baricitinib
- C20:3n6 (dihomo γ-linoleic) in hepatic TG fraction (BTBR ob/ob mice [4]; [10]): significant differences
- C20:4n6 (arachidonic) in hepatic TG fraction (BTBR ob/ob mice [4]; [10]): significant differences
- C16:0 (palmitic) in hepatic TG fraction (BTBR ob/ob mice [4]; [11]): significant lower levels
- C16:1n-7 (palmitoleic) in hepatic TG fraction (BTBR ob/ob mice [4]; [11]): significant lower levels
- C18:1n-9cis (oleic) in hepatic TG fraction (BTBR ob/ob mice [4]; [11]): significant lower levels
- P-STAT3 immunohistochemistry (JAK/STAT pathway activation in damaged liver) (JAK/STAT pathway [5]): dose-dependent inhibitory effect
- expression of ATP bind cassette transporter G1 (ABCG1) in liver (real-time PCR) (WT mice fed on MCD; MCD diet): upregulated
- expression of CD36 in liver (real-time PCR) (WT mice fed on MCD; MCD diet): downregulated
- hepatic lipid content (Oil red O positive area) (WT mice fed on MCD; MCD diet, between control vehicle and treated groups): significant differences
- gene expression of actin α2 (ACTA2) in liver (WT mice fed on MCD; MCD diet, vs vehicle group): reduced
- gene expression of collagen 1α (COL1α) in liver (WT mice fed on MCD; MCD diet, vs vehicle group): reduced
- gene expression of transforming growth factor β (TGFβ) in liver (WT mice fed on MCD; MCD diet, vs vehicle group): reduced
- F4/80 positive staining, reduced (% vs Vehicle) (WT mice fed on MCD; at 3 weeks of MCD): 45%
- circulating levels of transaminase GPT, significantly reduced (% vs Veh) (WT mice fed on MCD; at 3 weeks of MCD): 60%
- F4/80 positive staining, reduced (% vs Vehicle) (WT mice fed on MCD; at 5 weeks of MCD): 38%
- circulating levels of transaminase GPT, significantly reduced (% vs Veh) (WT mice fed on MCD; at 5 weeks of MCD): 75%
- hepatic collagen content (picrosirius red staining) (WT mice fed on MCD; increase induced by MCD diet): partial and significant reversion
- NAS score (WT mice fed on MCD; vs vehicle control group, both at 3 and 5 weeks of MCD diet): significant reduction
- expression of inflammatory gene CCL2 (real-time PCR) [6]: downregulated
- expression of inflammatory gene IL-6 (real-time PCR) [6]: downregulated
- expression of scavenger receptor CD36 (real-time PCR) [6]: downregulated
